Screening data, single-dose tests

Measurements from “University of Dundee, Small-Polar-MMV Screening Library” (2021), ChEMBL document CHEMBL3988442.

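Phenotypic screen: M. tuberculosis growth, cholesterol and DPPC medium, 4 days; the read-out is not stated. Tested at 500 µM. The record gives no direction; compounds that gave an IC50 in retests scored well above the rest, so higher reads as more growth inhibition. Size under these conditions: about 18,000 compounds, about 900 of them at 50% or above in at least one test.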

Results are given as percent effect. The controls that fix the scale are not given in the record; negative values are as filed. This is an unselected part of the compounds tested.

CC(C)CN1C(=O)c2cccn2CC1CN (stereo not shown) read 20.92%.
CN(C)[C@@H]1CN(C(=O)c2c(F)cccc2Cl)C[C@H]1CO read -38.27%.
OC1(CN2CCCC2)CCNCC1 read -5.934%.
Cc1ccccc1C1(O)CCN(Cc2cccnc2)C1 (stereo not shown) read 10.89%.
NCc1cccc(N)n1 read -4.139%.
CN(C)c1ncccc1CNC(=O)C1CCS(=O)(=O)C1 (stereo not shown) read 7.497%.
CCNC(=O)NCCOC(=O)c1cccc2cc[nH]c12 read 29.55%.
CC(=O)c1csc(C(=O)N2CCCC2C(C)(C)O)c1 (stereo not shown) read 39.53%.
CC(=O)NC(C)(C)C(=O)N1C[C@H](C2CC2)[C@@H](N)C1 read -13.01%.
CCS(=O)(=O)NC(c1nnc2ccccn12)C(C)C (stereo not shown) read 9.971%.
CC(C)(C)OC(=O)NC1CNNC1=O (stereo not shown) read -6.637%.
Cc1nn(C)c2nc(NCC3CCOC3)sc12 (stereo not shown) read 14.4%.
CCCN(CC(=O)NC)C(=O)c1ccc(C)[nH]c1=O read 4.377%.
Cc1ccc(OC(C)C(=O)NCCCC(N)=O)cc1 (stereo not shown) read 11.4%.
CN(CC(=O)N1CCNC1=O)CC1CCCCC1 read -8.809%.
N[C@@H]1CCOc2c(F)ccc(F)c21 read -1.355%.
Cc1cc(C2CC2)nc(N)n1 read -17.43%.
CC(CNC(=O)c1cccc(F)c1)N1CCN(C)CC1 (stereo not shown) read 13.02%.
Cc1cccc(NC(=O)N(C)CCS(C)(=O)=O)c1Cl read 8.705%.
CN1CCN(CC(=O)Nc2cccc(Cl)c2Cl)CC1 read 8.258%.
COc1cccc(N2CCC(N)CC2)c1 read 29.31%.
c1ccc(COCc2nc(C3CCCNC3)no2)cc1 (stereo not shown) read 7.416%.
COCCSc1nncn1CCc1ccccn1 read 9.917%.
Cc1cc(CNc2cnccn2)ccc1-n1cncn1 read 15.39%.
CCC(C)NC(=O)CCN1C(=O)CCC1=O (stereo not shown) read 1.246%.
COc1ccc(NC(C)C(=O)N2CCNC2=O)cc1 (stereo not shown) read 2.899%.
CCCc1nccn1CCN1CCCS1(=O)=O read -2.84%.
NC(=O)c1ccc(-c2nc(C3CCCC3)no2)o1 read 71.63%.
CCS(=O)(=O)NC1CCCNC1 (stereo not shown) read -0.8902%.
COc1cccc(NCCC#N)c1 read 25.01%.
COCCN(C(=O)C1CCCO1)c1ccc(C#N)cc1 (stereo not shown) read -5.912%.
CN(C)C(=O)CN1CCCCCCC1 read -7.678%.
CCC(C(=O)N(C)Cc1cc[nH]n1)N1CCCC1 (stereo not shown) read 7.172%.
CC(C)c1nccn1C1CCCNC1 (stereo not shown) read 6.683%.
OCCOc1ccc(NCc2ccsc2)cn1 read -20.84%.
Cc1ccc(C(=O)NCCCn2ccnc2)s1 read 4.655%.
Cn1ncc(Cl)c1C(=O)Nc1ccncc1 read 12.9%.
O=C(c1c(F)cccc1F)N1CCCC1 read -7.353%.
CCN1CCN(CCC(=O)Nc2ccccc2C)CC1 read 13.74%.
CN(C)CCCNCC(O)COc1ccccc1 (stereo not shown) read 25.68%.
COC(=O)c1ccc(NC2CCN(C)CC2)o1 read -44.79%.
NCCCn1nc2ccccn2c1=O read -0.02304%.
O=C(Cc1ccc(F)c(F)c1)N1CCCO1 read -2.484%.
Nc1nc(CCC(=O)NCCc2ccccn2)cs1 read 8.332%.
CNC(=O)NC(=O)C(C)OC(=O)c1ccc(CO)cc1 (stereo not shown) read -4.573%.
CCOC(=O)c1cccnc1C read 0.877%.
CCc1nnc(CN2CCOC3(CCCC3)C2)o1 read 41.96%.
COCCCOC1CN(C(=O)c2cccnc2)C1 read 17.15%.
CC(O)CN1CCN(CCC(=O)N2CCCCC2)CC1 (stereo not shown) read -3.955%.
CC(=O)N1CCC(C(=O)NCCc2nccn2C)CC1 read 8.247%.
FC(F)Oc1ccc(C2CNCCO2)cc1 (stereo not shown) read 22.33%.
CCN1CCN(c2nnc(-c3ccccn3)s2)CC1 read -16.71%.
CC1CCN(C(CN)C(C)C)CC1 (stereo not shown) read 15.64%.
CC(C)C(NCC(N)=O)c1ccc(F)cc1 (stereo not shown) read 16.24%.
Cc1ccc(NC(=O)N2CCCN(C)CC2)cc1 read 3.28%.
O=C1CCC(=O)N1CCSc1ccc2ccccc2n1 read -5.745%.
Cc1ccccc1OCCN1CCC(C(N)=O)CC1 read 1.958%.

For reference, 4 entries once more:

- CC(CNC(=O)c1cccc(F)c1)N1CCN(C)CC1 (stereo not shown) : 13.02%
- COCCN(C(=O)C1CCCO1)c1ccc(C#N)cc1 (stereo not shown) : -5.912%
- CCS(=O)(=O)NC1CCCNC1 (stereo not shown) : -0.8902%
- CCN1CCN(CCC(=O)Nc2ccccc2C)CC1 : 13.74%